For one assay, the target named is Sirtuin 5 (Sirt5) (UniProt Q9NXA8). The assay is described as follows: affinity purification with mass spectrometry; His-tagged bait (p66CH2CB as a mixture of dimeric and tetrameric state, or the Sirt5 control) saturating Talon resin; 3 mg mitochondrial lysate, 10 mM imidazole, 1 h at room temperature; eluate digested with trypsin and analysed by MudPIT; only the target purified.

Chains of the proteins cited; added tags and fusions are not shown. Residues count along the entry.
UniProt Q9NXA8, residues 37-310: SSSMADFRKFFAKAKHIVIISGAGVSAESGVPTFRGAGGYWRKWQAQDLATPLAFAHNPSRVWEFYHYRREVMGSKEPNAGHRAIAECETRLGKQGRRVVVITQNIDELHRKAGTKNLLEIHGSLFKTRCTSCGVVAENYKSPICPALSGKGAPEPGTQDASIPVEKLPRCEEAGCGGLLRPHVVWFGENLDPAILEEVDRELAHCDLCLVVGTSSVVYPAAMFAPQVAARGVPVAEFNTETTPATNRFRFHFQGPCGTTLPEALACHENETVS
UniProt P10860, residues 54-558: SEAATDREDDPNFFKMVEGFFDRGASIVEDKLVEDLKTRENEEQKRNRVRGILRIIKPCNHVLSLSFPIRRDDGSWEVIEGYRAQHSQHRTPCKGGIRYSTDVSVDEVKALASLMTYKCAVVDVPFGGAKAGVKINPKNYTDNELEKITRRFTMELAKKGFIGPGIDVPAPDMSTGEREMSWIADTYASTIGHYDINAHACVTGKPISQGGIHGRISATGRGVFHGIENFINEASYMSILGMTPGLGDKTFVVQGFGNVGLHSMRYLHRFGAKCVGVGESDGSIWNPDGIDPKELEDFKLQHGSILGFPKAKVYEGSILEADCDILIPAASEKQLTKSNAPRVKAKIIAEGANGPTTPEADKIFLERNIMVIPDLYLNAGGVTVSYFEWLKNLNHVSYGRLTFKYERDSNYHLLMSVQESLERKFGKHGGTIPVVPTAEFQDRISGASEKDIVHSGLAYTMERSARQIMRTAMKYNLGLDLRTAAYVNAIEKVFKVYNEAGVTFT

Assay [1] addresses T1, p66CH2CB WT (N-terminal domains CH2 and CB of p66Shc, residues 1-150) (UniProt P29353).
T1 sequence: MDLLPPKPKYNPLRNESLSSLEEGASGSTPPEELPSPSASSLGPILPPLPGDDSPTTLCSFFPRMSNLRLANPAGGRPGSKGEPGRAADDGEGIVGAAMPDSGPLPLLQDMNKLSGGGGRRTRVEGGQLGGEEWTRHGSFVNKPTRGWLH
The assay is described as above.

These are yes or no findings as the source states them, for the method shown. In cells and extracts the contact can be indirect. These calls come from enrichment with a bait or labelling near it, and not all partners need be listed. A no says only that the protein was not detected with the bait.

Consider “glutamate-dehydrogenase 1, endogenous in mitochondrial lysate (from UniProt P10860 54-558)”, for which the binding result (in the assay with Sirtuin 5 (Sirt5); in assay [1]) was “no binding” each time.

The values above are taken from paper PMC2806001.
